In PubChem BioAssay AID758 (NMMLSC, 2007):
About 110 (0.058%) of roughly 190,000 compounds were called active. Inconclusive means that the source gave no clear call. Such entries were picked first, then a sample of the others.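 Rule for the calls: active = fluorescent GTP binding to Rab7 beads changed by at least 20 points from the 100% baseline, either direction, mostly lower; inconclusive = compound itself probably fluorescent, or too few beads counted; inactive = the rest.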

System: Rab7 GTPase wild type (dog), Bodipy-FL-GTP binding
Assay: modulators of GTP binding to Rab7, primary screen, biochemical, wildtype, multiplex bead flow cytometry (AID 758);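 note: median green fluorescence of bound Bodipy-FL-GTP per Rab7 bead population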
Settings: GST-Rab7 beads, fluorescent GTP binding, at 10 µM, actives lie on both sides, untreated = 100%, excess cold GTP = 0%

SMILES	GTP binding activity (percent of control)
CC1(O)CC(=O)N(c2ccccc2)O1 (configuration not stated)	inconclusive: 105%
Cc1cccc(NC(=O)CC2Nc3cccc4cccc(c34)NC2=O)c1 (configuration not stated)	inconclusive: 103%
CCOc1ccc(C(=O)c2ccc([N+](=O)[O-])cc2Cl)cc1	inconclusive: 92%
COc1ccc(CC(=O)c2ccccc2C(=O)O)cc1	active: 125% [activator]
Cc1ccc(OCc2ccc(C(=O)Nc3ccc(C(N)=O)cc3)o2)c([N+](=O)[O-])c1	inconclusive: 97%
CC1Cc2ccccc2N1CC(=O)NC(=O)NCc1ccco1 (configuration not stated)	inconclusive: 97%
COc1ccc(/C=C2\CCn3c2nc2cc(C(=O)O)ccc2c3=O)cc1O	inconclusive: 93%
Cc1cc(C(=O)CSc2nn3c(=O)c(C(C)(C)C)nnc3s2)c(C)n1C	inactive: 97%
O=c1[nH]c(N2CCc3ccccc3C2)nc2c1CCC2	inconclusive: 92%
CCCCC(=O)Nc1cccc(NC(=O)C(C)C)c1	inconclusive: 101%
CCOc1ccccc1C(=O)Nc1nn[nH]n1	inconclusive: 93%
COc1cc(/C=N/NC(=O)c2ccoc2C)cc(OC)c1O	inconclusive: 100%
CSc1ccccc1C(=O)N1CCN(c2ncccn2)CC1	inactive: 93%
CC(=O)Nc1ccc(Nc2nc3c(S(=O)(=O)c4ccc(C)c(C)c4)nnn3c3ccccc23)cc1	inactive: 97%
COc1ccc(CCNC(=O)COc2nncc3ccccc23)cc1	inactive: 102%
C=CCNC(=S)/C(=C(/[O-])c1ccccc1Br)[n+]1ccccc1	inconclusive: 97%
Cc1cc(N2CC(C(=O)O)CC2=O)ccc1Br (configuration not stated)	inconclusive: 107%
Cc1csc(NC(=O)CNS(=O)(=O)c2cccs2)n1	inconclusive: 107%
CCC(C)/C=C/C1=CC2=C(Cl)C(=O)C3(C)OC(=O)C(C(=O)C(C)C(C)O)C3C2=CO1 (configuration not stated)	inactive: 102%
CCCCN(CC)C(=S)Nc1ccc2nc(N3CCN(C)CC3)cc(C)c2c1	inactive: 93%
CCC(C)(C)NC(=O)C(c1cccnc1)N(CCOC)C(=O)Cn1nnc2ccccc21 (configuration not stated)	inconclusive: 104%
CCOC(=O)Nc1ccc(NC(=O)OCC)cc1	inconclusive: 100%
O=C(CN1C(=O)NC2(CCCCC2)C1=O)N1CCc2ccccc2C1	inconclusive: 95%

SMILES	GTP binding activity (percent of control)
COC1(OC)C(/C=C/c2ccc(C)cc2)C(C#N)(C#N)C1(OC)OC (configuration not stated)	inconclusive: 101%
COc1ccccc1OCCn1c(C(C)O)nc2ccccc21 (configuration not stated)	inconclusive: 89%
O=C(Cc1c(O)c2ccccc2[nH]c1=O)NC1CCCCCC1	inactive: 99%
COc1ccc(-c2nc(Cc3ccc(Cl)cc3)no2)cc1OC	inconclusive: 101%
CCOc1ccc(NC(=O)CSc2nc3c([nH]c4ccccc43)c(=O)n2C)cc1	inconclusive: 96%
CCc1ccc(NS(=O)(=O)c2ccc3[nH]cc(C(=O)N4CCc5ccccc54)c(=O)c3c2)cc1	inactive: 91%
CN1CCN(c2ccccc2NC(=O)c2ccc(-c3cccc([N+](=O)[O-])c3)o2)CC1	inactive: 106%
CCc1ccc(C2=NN(S(C)(=O)=O)C(c3cccs3)C2)cc1 (configuration not stated)	inconclusive: 113%
CCc1cccc2c(C#N)cn(CC(=O)NCCOC)c12	inconclusive: 96%
CC1CCc2cc(F)ccc2N1C(=O)CSc1nnc2c(n1)[nH]c1ccc(F)cc12 (configuration not stated)	inconclusive: 87%
Cc1ccc(-c2nc3ccccc3[nH]2)cc1NC(=O)c1ccc2c(c1)OCO2	inconclusive: 102%
Cc1cc(NC(=O)c2cc3n(n2)C(C(F)(F)F)CC(c2ccco2)N3)no1 (configuration not stated)	inconclusive: 103%
COc1ccc(C(=O)NC(C)(C)C)cc1S(=O)(=O)N1CCCC1	inconclusive: 105%
CC(C)CNS(=O)(=O)c1ccc(CCC(=O)Nc2ccc3c(c2)OCO3)cc1	inactive: 102%
CCc1ccc(N2C(=O)C3ON(c4ccccc4)C(c4ccco4)C3C2=O)cc1 (configuration not stated)	inconclusive: 104%
COc1ccc(/C=N/NC(=S)Nc2cc(S(=O)(=O)N3CCOCC3)ccc2N2CCOCC2)cc1O	inactive: 119%
CC(C)(C)c1ccc(C(=O)NC(=S)Nn2cnnc2)cc1	inconclusive: 97%
CCOC(=O)C1(CCCc2ccccc2)CCN(Cc2cn(CC)nc2C)CC1	inactive: 105%
COc1ccc(/C=C/C(=O)NC(=S)Nc2ccc(S(=O)(=O)Nc3nccnc3OC)cc2)cc1	inconclusive: 89%
O=C(O)CCN1C(=O)/C(=C/c2ccc(-c3nc4ccccc4s3)o2)SC1=S	inconclusive: 78%
CCN(CC)CCN(C(=O)c1c(F)cccc1F)c1nc2cc(C)cc(C)c2s1	inactive: 95%
S=c1nc(-c2sccc2OCc2ccc(Cl)cc2Cl)[nH][nH]1	inactive: 103%
Cc1cc(C)nc(NC(=O)CSc2nccc(C)n2)n1	inconclusive: 97%

SMILES	GTP binding activity (percent of control)
CCCC(=O)NCCc1nc2cc([N+](=O)[O-])ccc2n1C	inactive: 99%
CC(=O)Nc1ccc(S(=O)(=O)N2CCN(C(C)CCc3ccccc3)CC2)cc1 (configuration not stated)	inconclusive: 103%
CCc1ccc(-c2c(C)sc(NC(C)=O)c2C(N)=O)cc1	inconclusive: 103%
Cc1cc(C)nc(Nc2nc(C)c3cc4c(cc3n2)OCO4)n1	inconclusive: 108%
CCCCCCCC(=O)NNC(=O)Cc1ccccc1	inactive: 94%
CC1(C)N=C(N)NC(Nc2ccccc2Cl)=N1	inactive: 102%
CCOC(=O)c1c(C)n(CC(COC(C)=O)OC(C)=O)c2ccc(OC(C)=O)cc12 (configuration not stated)	inconclusive: 99%
Cc1ccccc1OCCn1cc(C(=S)N2CCN(C)CC2)c2ccccc21	inactive: 105%
O=C(NC(=S)N1CCN(c2ccc(F)cc2)CC1)C12CC3CC(CC(C3)C1)C2	inconclusive: 102%
CCNC(=O)NC(=O)C(C)OC(=O)Cc1coc2cc3c(cc12)CCC3 (configuration not stated)	inconclusive: 92%
O=C(O)CSc1nnc(COc2cccc3ccccc23)n1Cc1ccccc1	inconclusive: 89%
COc1ccc(C(=O)c2c(O)cc(-c3ccc(OC)cc3)oc2=O)cc1	active: 125% [activator]
CCCCNC(=O)CSc1nc2ccsc2c(=O)n1CCCC(=O)NCCc1ccc(S(N)(=O)=O)cc1	inactive: 90%
O=C(CSc1nnc(-c2ccco2)n1Cc1ccco1)NCc1cccs1	inconclusive: 102%
Cc1cccc(NC(=S)N(CCN(C)C)Cc2cccs2)c1	inactive: 96%
Cc1ccc(/C([O-])=C(/C(=S)Nc2ccc(SC(F)F)cc2)[n+]2ccccc2)cc1[N+](=O)[O-]	inconclusive: 87%
COc1cccc(-c2nn(C)c3sc(C(=O)NCc4ccco4)cc23)c1	inconclusive: 96%
CC(=O)N(Cc1cc(=O)[nH]c2ccccc12)c1ccc(C)cc1	inconclusive: 103%
Cc1ccccc1-n1c(SCc2c(C)noc2C)nnc1-c1ccncc1	inactive: 98%
CC(O/N=C/c1ccc(OC(F)F)cc1)C(=O)Nc1cccc(S(=O)(=O)N2CCOCC2)c1 (configuration not stated)	inactive: 101%
O=C(c1cccc([N+](=O)[O-])c1)N1CCN(c2ccccn2)CC1	inconclusive: 115%
CCCOc1ccc(C(CC(=O)O)NC(=O)c2sc3ccccc3c2Cl)cc1 (configuration not stated)	inactive: 93%
Cc1onc(COc2ccccc2O)c1Br	inconclusive: 104%

SMILES	GTP binding activity (percent of control)
Cc1ccc(C)c(N(CC(N)=O)S(C)(=O)=O)c1	active: 78%
Cc1cc(Cl)nc(-c2ccccc2)n1	inconclusive: 94%
COc1nc(Nc2ccc(O)cc2)nc(OC(C(F)(F)F)C(F)(F)F)n1	inconclusive: 153%
O=C(CCC(=O)N1CCCC1)Nc1nnc(C(F)(F)F)s1	inconclusive: 97%
O=C(NNc1cccc(Cl)n1)c1c(Cl)cccc1Cl	inconclusive: 107%
O=C(O)c1cccc(-n2c(-c3cnccn3)n[nH]c2=S)c1	inactive: 98%
COc1cccc(CSc2nc3sc(C)c(C)c3c(=O)n2Cc2ccco2)c1	inconclusive: 98%
CCOc1cc(S(=O)(=O)NCc2ccc3c(c2)OCO3)c(C)cc1C	inconclusive: 96%
Cc1cccc2sc(NC(=O)C3CCCN(S(=O)(=O)c4cccc5nonc45)C3)nc12 (configuration not stated)	inconclusive: 106%
Cc1c(C(=O)N2CCCCC2)sc(NC(=O)C(C)C)c1C#N	inconclusive: 101%
CN1CCN(S(=O)(=O)c2ccc(NC(=S)NC(=O)C(C)(C)C)cc2)CC1	inactive: 98%
COc1ccc(OC)c(NC2=NC3(CCCCC3)N=C(N)N2)c1	inconclusive: 87%
Cc1cccc(NC(=O)CN(C)S(=O)(=O)c2cccs2)c1	inconclusive: 93%
COc1cc(/C=C(/C#N)c2ccc(F)cc2)ccc1Oc1ccc([N+](=O)[O-])cn1	inconclusive: 102%
Oc1ccc(/C=N/Nc2nc(N3CCCCCC3)nc(N3CCCCCC3)n2)c(O)c1	inconclusive: 92%
C/C=C/C(=O)OCC(=O)Nc1cccc(F)c1	inactive: 105%
COc1cccc(N=c2oc3c(C)ncc(CO)c3cc2C(N)=O)c1	inconclusive: 92%
Cc1ccc(-c2cc(C(F)(F)F)n3ncc(C(=O)N4CCCCC4c4cccnc4)c3n2)cc1 (configuration not stated)	inactive: 97%
CCOc1ccc(NC(=O)CNC(=O)c2ccc([N+](=O)[O-])cc2)cc1	inactive: 101%
Cc1cc2ccccn2c1C(=O)c1cc([N+](=O)[O-])cc([N+](=O)[O-])c1	active: 24%
c1ccc(-c2csc(N3CCOCC3)n2)cc1	inconclusive: 101%
O=C(Cn1c(-c2cscn2)nc2ccccc21)Nc1cc(F)ccc1F	inactive: 105%
COc1ccc(N(C(=O)c2cccnc2)S(=O)(=O)c2cccs2)cc1	inactive: 95%

Rewritten field by field: part of the list above.
Cc1cc(C)nc(NC(=O)CSc2nccc(C)n2)n1
  GTP binding activity (percent of control): inconclusive: 97%
Cc1ccccc1-n1c(SCc2c(C)noc2C)nnc1-c1ccncc1
  GTP binding activity (percent of control): inactive: 98%
CC(O/N=C/c1ccc(OC(F)F)cc1)C(=O)Nc1cccc(S(=O)(=O)N2CCOCC2)c1 (configuration not stated)
  GTP binding activity (percent of control): inactive: 101%
Oc1ccc(/C=N/Nc2nc(N3CCCCCC3)nc(N3CCCCCC3)n2)c(O)c1
  GTP binding activity (percent of control): inconclusive: 92%
